No constants are given. Whether binding was seen depends on the method and setting. Some binding calls cover weakened binding; strength is not graded here.

Protein sequences, listed by entry. Tags and fused reporters are not part of them. Residues count along the entry.
UniProt Q15116, residues 25-167: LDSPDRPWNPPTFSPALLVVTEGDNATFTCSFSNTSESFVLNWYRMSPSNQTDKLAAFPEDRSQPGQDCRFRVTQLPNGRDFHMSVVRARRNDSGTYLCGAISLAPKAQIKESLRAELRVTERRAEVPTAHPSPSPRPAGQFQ

Binding data for one molecule are collected here from patent US20220235132A1.

This test concerns the target recombinant human PD-1 monomer (human) (UniProt Q15116). The test can be described thus: hydrogen-deuterium exchange with recombinant human PD-1 monomer.

B1: APE12537 (3.7C6 anti-PD-1 antibody, CHO-S sorted stable pool) (antibody, human IgG1, kappa, V domains shown)
VH: QVQLVQSGSELKKPGASVKVSCKASNYTFTDYSMHWVRQAPGQGLEWMGWINIETYYPTYADQFKGRFAFSLDTSVSTAYLQISSLKAEDTAVYYCARDYYGRFYYAMDYWGQGTTVTVSS
VL: EIVLTQSPATLSLSPGERATLSCTASSSVSSSYFHWYQQKPGQAPRLLIYSTSNLASGIPARFSGSGSGTDFTLTISRLEPEDFAVYYCHQYHRSPLTFGGGTKVEIKR
On to B1, for which the binding entry is given as “binds”.
